Experimental data: paper PMC5641635
No constants are given. Whether binding was seen depends on the method and setting. In cells and extracts the contact can be indirect. Some entries that bind do so weakly or less than the wild type. Where a sequence is shown, tags or fusion partners need not be part of it. Values belong to the binder of their own block, whether it stands above or below them.

Tests used:
[1] = molecular target: T1, FLAG-tagged CDKAL1 truncation mutant containing only the C-terminal residues 477–579 (C) (UniProt Q5VV42); assay: co-IP; FLAG-CDKAL1 wild type, mutant or fragments as bait; 10 mg lysate of transfected HEK293 cells in 50 mM Tris HCl, 150 mM NaCl, 1% Triton X100, 1 mM EDTA; anti-FLAG M2 affinity agarose overnight at 4 °C; immunoblots for MMS19, FAM96B and ANT1
T1 sequence: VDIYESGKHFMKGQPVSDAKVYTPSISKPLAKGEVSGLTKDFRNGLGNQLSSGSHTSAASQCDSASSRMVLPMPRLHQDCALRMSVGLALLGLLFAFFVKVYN

[2] = molecular target: T2, FLAG-tagged CDKAL1 truncation mutant containing only the N terminal 131 amino acids (N) (UniProt Q5VV42); assay: as above
T2 sequence: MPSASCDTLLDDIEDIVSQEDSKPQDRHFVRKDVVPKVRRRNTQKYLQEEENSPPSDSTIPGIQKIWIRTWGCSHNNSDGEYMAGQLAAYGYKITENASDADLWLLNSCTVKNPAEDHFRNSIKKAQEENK

[3] = molecular target: T3, FLAG-tagged CDKAL1 truncation mutant lacking the C-terminal residues 477–579 (ΔC) (UniProt Q5VV42); assay: as above
T3 sequence: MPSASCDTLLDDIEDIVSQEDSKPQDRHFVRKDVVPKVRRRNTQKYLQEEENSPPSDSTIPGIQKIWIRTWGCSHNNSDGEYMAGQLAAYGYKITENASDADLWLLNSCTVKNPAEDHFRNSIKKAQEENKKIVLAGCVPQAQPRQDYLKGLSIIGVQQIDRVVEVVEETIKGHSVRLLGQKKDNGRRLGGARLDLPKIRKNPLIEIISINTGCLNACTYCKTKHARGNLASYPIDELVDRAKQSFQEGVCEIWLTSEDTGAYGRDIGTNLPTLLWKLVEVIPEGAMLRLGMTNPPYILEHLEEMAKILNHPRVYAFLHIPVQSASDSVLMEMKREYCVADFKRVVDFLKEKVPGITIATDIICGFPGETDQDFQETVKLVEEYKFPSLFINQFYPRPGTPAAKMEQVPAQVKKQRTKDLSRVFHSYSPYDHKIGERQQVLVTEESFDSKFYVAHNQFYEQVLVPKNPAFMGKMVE

[4] = molecular target: T4, FLAG-tagged CDKAL1 truncation mutant lacking the N terminal 131 amino acids (ΔN) (UniProt Q5VV42); assay: as above
T4 sequence: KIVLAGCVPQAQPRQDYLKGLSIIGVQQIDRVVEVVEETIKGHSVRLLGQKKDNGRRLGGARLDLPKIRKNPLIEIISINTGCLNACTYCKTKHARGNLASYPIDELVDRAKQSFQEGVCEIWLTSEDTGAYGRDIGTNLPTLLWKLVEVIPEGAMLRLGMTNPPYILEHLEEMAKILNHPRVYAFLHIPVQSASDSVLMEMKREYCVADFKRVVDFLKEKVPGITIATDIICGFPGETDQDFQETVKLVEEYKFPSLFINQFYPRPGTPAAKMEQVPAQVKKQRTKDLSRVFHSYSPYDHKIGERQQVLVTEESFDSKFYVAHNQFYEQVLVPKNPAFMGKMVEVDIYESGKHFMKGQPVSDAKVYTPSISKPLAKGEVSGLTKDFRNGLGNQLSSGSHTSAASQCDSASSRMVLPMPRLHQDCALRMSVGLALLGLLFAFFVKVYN

[5] = molecular target: T5, FLAG-tagged wild-type full-length CDKAL1 (UniProt Q5VV42); assay: as above
T5 sequence: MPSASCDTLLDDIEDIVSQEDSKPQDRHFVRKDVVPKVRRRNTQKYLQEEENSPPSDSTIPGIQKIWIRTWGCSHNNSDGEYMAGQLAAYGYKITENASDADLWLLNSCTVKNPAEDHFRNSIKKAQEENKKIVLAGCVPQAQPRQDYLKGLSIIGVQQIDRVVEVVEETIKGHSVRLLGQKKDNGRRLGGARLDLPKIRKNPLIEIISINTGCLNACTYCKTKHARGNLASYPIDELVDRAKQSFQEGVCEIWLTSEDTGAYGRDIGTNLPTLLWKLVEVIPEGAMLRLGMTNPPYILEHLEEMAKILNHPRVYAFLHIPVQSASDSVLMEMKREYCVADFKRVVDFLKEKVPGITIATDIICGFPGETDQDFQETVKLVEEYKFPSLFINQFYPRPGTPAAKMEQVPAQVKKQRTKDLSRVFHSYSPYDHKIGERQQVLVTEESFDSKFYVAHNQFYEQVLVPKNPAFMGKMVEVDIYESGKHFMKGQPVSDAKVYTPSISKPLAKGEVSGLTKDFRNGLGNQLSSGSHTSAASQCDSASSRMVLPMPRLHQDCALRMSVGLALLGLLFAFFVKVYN

FLAG-tagged SLC25A4/ANT1 = molecular target: T6, FLAG-tagged SLC25A4/ANT1 (UniProt P12235); assay: co-IP; FLAG-ANT1 as bait; 1.5 mg lysate of transfected HEK293 cells in 50 mM Tris HCl, 150 mM NaCl, 1% Triton X100, 1 mM EDTA; anti-FLAG M2 affinity agarose overnight at 4 °C; Western blot for endogenous CDKAL1
T6 sequence: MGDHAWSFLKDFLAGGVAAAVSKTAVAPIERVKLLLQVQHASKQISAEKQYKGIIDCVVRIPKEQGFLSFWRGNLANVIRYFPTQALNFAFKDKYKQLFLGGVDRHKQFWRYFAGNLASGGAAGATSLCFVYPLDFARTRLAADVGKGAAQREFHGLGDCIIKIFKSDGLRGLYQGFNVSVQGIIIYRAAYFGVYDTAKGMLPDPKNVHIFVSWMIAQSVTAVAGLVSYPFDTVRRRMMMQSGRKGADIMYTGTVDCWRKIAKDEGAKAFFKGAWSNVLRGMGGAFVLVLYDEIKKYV

binding [1]: binds weakly
binding [2]: binds
binding [3]: binds
binding [4]: binds
binding [5]: binds
B1: ANT1/SLC25A4, endogenous (protein, UniProt P12235 1-298)
chain: T6 sequence

binding (FLAG-tagged SLC25A4/ANT1): binds
B2: endogenous CDKAL1 (protein, UniProt Q5VV42 1-579)
chain: T5 sequence
